Data as given in PMC11865472.
Results are given in words; binding and its absence hold for the method and conditions named. Some binding calls cover weakened binding; strength is not graded here. Where a sequence is shown, tags or fusion partners need not be part of it.

Protein sequences, listed by entry. Tags and fused reporters are not part of them. Lines headed by an entry give the natural chain unless they say otherwise; changes in a name come on top.
UniProt P05111: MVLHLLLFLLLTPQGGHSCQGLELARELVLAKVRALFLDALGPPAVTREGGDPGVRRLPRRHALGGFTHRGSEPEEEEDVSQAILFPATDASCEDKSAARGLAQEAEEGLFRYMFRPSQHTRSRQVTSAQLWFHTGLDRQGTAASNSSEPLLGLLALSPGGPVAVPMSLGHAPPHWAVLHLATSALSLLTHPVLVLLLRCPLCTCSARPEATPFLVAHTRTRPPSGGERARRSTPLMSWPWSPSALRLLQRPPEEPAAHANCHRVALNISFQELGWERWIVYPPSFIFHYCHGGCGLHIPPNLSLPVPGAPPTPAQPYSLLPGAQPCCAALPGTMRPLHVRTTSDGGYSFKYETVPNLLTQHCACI

Molecular target: T1, SNAP-BG, rat betaglycan with an N-terminal SNAP-tag, on HEK293T cells (rat) (UniProt P26342)
T1 sequence (chain, SNAP-tag ligand conjugated to a fluorescent dye (CF567/CF568)): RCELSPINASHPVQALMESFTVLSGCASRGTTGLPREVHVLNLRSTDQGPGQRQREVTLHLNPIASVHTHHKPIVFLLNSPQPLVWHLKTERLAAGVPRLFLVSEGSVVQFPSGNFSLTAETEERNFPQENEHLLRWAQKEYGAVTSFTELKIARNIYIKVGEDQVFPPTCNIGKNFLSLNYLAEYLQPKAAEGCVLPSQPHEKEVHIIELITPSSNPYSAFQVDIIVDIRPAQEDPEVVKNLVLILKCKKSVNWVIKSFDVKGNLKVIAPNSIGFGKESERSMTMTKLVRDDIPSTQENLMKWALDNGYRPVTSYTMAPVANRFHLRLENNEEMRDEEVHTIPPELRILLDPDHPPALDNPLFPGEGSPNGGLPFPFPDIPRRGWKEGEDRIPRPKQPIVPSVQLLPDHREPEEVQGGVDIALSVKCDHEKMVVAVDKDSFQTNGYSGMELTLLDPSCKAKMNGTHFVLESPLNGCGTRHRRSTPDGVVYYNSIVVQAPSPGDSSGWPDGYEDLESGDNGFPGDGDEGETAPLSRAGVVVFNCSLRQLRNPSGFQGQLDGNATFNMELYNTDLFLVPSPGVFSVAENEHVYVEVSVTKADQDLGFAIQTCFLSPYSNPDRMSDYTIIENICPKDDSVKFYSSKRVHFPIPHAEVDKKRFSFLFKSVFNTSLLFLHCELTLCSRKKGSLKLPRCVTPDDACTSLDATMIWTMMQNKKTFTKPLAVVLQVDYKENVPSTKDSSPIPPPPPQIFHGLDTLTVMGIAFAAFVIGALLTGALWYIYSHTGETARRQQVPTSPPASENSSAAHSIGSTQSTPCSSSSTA
Assay: competition binding assay on cells, confocal microscopy; HEK293T cells stably expressing SNAP-BG; 20 ng/ml fluorescently labeled InhA, after 10 min excess of unlabeled ligand; ratio of SNAP-BG to ligand signal; only the binder purified

Substance	binding
inhibin A (InhA), mature heterodimer, unlabelled (from UniProt P05111 233-366; P08476 311-426) (ligand)	binds
fluorescently labeled inhibin A (CF640R) (from UniProt P05111 233-366; P08476 311-426) (ligand)	binds
